Reference: paper PMC7961486
Results are given in words; binding and its absence hold for the method and conditions named. Binding seen in cells or lysates may run through a third protein. Some entries that bind do so weakly or less than the wild type.

By UniProt entry, the sequences of proteins in these tests, tags left out. Where a name states a change or a piece, a line headed by the entry shows the natural chain unless it says otherwise.
UniProt Q9BSQ5: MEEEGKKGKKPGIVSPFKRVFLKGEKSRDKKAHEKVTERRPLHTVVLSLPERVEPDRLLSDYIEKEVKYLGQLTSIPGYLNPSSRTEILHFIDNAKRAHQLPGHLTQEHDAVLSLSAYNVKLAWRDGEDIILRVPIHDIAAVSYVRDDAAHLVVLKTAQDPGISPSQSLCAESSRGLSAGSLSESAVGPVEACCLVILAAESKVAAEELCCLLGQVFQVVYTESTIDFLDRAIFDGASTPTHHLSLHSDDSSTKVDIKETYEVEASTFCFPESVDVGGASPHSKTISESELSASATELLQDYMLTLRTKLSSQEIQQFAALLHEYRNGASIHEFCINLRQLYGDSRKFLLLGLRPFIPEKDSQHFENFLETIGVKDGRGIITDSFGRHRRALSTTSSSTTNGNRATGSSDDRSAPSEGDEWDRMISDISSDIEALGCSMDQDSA
UniProt P17844: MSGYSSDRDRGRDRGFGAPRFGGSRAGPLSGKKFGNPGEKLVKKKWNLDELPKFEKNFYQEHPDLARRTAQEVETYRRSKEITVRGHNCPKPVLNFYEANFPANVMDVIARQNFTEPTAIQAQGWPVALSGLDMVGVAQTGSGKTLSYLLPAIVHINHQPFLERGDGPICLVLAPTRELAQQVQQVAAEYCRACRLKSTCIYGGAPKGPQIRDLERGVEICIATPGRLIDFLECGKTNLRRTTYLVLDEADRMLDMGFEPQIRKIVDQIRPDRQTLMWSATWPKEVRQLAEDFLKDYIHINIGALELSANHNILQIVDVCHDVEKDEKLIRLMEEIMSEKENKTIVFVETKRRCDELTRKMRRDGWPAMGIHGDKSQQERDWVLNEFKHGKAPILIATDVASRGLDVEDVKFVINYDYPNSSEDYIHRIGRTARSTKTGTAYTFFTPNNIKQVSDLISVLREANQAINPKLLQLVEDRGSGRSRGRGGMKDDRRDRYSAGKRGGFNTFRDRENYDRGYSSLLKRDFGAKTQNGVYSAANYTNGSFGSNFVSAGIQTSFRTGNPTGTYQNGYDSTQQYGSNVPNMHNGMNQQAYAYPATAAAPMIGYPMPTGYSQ
UniProt O00522: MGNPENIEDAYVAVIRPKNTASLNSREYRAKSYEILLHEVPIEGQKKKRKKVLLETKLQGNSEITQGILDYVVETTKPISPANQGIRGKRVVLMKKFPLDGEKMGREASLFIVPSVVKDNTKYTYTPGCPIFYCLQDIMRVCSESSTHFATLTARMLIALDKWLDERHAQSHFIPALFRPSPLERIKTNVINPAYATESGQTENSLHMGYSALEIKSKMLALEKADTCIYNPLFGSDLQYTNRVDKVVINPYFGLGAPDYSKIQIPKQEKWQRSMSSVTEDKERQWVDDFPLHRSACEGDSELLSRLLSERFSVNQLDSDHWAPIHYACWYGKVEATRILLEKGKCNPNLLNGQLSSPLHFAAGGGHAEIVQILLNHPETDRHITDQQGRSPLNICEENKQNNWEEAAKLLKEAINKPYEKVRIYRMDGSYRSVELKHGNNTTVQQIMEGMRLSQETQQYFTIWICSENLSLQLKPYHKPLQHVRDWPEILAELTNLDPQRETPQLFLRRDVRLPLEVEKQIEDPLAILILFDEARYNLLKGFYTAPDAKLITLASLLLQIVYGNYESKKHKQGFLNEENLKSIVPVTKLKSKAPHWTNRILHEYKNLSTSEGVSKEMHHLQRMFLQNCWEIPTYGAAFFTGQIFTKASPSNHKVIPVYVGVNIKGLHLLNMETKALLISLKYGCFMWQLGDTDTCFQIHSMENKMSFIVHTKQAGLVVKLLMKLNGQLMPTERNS

What was measured:
Flag-tagged WT CCM2 = Flag-tagged WT CCM2 (UniProt Q9BSQ5); assay: co-IP; PC3 lysates; Flag-CCM2 (WT or L198R) immunoprecipitated with anti-Flag antibody on Protein G-agarose, beads washed three times with RIPA buffer at 4 °C; blot with anti-HA (HA-DDX5) or anti-CCM1 (endogenous CCM1); in some samples CCM1 was RNAi-silenced
[1] = target: DDX5, endogenous in U2OS cells (human (endogenous in U2OS)) (UniProt P17844); assay: co-IP; U2OS lysates with overexpressed Flag-CCM1; endogenous DDX5 immunoprecipitated with anti-DDX5 antibody on Protein G-agarose, beads washed three times with RIPA buffer at 4 °C; blot with anti-Flag
Flag-tagged L198R CCM2 = Flag-tagged L198R CCM2 (UniProt Q9BSQ5); assay: co-IP; PC3 lysates; Flag-CCM2 (WT or L198R) immunoprecipitated with anti-Flag antibody on Protein G-agarose, beads washed three times with RIPA buffer at 4 °C; blot with anti-HA (HA-DDX5) or anti-CCM1 (endogenous CCM1); in some samples CCM1 was RNAi-silenced

Substance | binding (Flag-tagged WT CCM2) | binding [1] | binding (Flag-tagged L198R CCM2)
CCM1, endogenous in PC3 cells (from UniProt O00522 1-736) | binds |  | 
Flag-tagged CCM1 (cerebral cavernous malformation 1) (from UniProt O00522 1-736) |  | binds | 
HA-tagged DDX5 (WT) (from UniProt P17844 1-614) | binds |  | binds
